Assay results from the supplement of paper PMC10849652.
The list shows a part of the results.

Amino acid sequences for entries named in this document (tags omitted). A change or cut given only in a name is not applied to a line headed by its entry.
UniProt Q9H7M9, whole entry, looked up: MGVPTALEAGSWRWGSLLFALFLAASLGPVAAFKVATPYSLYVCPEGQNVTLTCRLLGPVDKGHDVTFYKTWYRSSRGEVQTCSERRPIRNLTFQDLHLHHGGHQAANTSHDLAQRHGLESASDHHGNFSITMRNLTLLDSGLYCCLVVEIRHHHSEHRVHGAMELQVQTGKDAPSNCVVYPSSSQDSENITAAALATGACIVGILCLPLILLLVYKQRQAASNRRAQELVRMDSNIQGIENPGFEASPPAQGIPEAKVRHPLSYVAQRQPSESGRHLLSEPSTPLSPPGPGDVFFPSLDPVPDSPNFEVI
UniProt O75083: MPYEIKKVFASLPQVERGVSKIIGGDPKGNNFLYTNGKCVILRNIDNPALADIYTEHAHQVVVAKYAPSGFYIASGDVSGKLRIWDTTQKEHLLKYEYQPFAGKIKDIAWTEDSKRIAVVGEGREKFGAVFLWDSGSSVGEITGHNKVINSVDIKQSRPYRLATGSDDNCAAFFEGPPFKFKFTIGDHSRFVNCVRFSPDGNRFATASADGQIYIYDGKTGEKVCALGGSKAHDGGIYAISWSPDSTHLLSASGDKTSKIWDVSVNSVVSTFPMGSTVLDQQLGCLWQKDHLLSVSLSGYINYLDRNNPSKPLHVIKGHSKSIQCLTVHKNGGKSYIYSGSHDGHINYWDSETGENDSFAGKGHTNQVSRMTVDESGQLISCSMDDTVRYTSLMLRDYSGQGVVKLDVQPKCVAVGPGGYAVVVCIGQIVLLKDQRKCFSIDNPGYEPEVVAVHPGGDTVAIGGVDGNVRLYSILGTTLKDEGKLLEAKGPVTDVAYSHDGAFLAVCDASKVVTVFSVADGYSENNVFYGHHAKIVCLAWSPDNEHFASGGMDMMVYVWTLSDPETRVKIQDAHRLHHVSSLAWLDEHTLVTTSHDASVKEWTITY
UniProt Q96AJ9: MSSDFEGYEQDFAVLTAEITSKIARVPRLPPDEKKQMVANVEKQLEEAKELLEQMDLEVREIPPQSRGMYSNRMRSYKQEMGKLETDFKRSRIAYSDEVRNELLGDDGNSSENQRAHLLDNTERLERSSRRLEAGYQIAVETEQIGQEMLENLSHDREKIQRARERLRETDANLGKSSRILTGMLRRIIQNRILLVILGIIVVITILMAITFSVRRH
UniProt Q9Y2W2: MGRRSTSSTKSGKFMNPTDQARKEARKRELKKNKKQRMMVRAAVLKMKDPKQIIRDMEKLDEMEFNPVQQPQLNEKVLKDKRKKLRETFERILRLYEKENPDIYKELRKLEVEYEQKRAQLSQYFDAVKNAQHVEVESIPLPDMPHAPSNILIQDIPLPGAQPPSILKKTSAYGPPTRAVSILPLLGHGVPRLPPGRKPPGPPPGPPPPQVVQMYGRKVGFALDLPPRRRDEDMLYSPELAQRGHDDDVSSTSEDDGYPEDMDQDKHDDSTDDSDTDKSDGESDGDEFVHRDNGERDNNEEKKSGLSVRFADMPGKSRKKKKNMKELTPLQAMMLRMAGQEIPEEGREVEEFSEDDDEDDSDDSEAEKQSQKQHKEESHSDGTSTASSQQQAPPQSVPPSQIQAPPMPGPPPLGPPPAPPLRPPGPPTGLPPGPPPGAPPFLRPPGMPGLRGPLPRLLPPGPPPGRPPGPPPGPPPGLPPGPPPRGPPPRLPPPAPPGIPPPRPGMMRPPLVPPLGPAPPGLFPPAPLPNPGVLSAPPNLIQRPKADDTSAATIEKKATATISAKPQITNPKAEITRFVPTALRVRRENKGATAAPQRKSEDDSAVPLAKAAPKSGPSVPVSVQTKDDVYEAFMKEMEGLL
UniProt Q96JG6: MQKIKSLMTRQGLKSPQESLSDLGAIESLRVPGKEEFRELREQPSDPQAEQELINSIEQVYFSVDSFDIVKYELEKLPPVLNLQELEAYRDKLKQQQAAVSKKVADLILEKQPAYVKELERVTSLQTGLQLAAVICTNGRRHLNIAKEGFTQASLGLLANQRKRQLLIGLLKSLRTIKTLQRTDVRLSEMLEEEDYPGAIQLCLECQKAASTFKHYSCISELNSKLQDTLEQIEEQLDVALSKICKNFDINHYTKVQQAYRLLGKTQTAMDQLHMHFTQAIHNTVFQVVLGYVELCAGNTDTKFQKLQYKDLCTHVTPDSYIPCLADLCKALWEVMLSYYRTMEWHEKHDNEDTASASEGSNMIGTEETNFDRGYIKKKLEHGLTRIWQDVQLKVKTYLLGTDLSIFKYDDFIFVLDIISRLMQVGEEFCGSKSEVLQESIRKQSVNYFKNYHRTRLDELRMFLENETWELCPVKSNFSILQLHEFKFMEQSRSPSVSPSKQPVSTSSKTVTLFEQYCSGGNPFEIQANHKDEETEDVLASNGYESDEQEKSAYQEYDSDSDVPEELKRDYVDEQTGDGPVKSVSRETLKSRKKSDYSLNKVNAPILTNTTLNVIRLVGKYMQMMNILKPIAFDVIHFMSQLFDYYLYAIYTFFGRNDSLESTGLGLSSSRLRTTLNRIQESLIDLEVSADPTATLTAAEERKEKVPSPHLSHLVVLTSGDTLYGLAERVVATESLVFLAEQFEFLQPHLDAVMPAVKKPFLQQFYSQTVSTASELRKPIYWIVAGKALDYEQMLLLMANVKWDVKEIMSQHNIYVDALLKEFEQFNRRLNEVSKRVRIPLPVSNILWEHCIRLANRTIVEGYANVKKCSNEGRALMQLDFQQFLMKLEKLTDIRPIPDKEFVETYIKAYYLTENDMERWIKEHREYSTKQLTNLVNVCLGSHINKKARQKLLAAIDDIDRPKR
UniProt Q9NP79: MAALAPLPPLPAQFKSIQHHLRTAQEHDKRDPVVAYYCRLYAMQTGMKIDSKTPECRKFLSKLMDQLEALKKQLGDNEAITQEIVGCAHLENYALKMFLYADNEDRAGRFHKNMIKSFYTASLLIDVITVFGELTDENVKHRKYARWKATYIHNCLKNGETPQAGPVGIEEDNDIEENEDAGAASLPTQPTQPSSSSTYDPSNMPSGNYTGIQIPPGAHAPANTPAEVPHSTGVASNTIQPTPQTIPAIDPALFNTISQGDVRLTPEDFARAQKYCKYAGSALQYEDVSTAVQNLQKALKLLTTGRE
UniProt Q9BUR4: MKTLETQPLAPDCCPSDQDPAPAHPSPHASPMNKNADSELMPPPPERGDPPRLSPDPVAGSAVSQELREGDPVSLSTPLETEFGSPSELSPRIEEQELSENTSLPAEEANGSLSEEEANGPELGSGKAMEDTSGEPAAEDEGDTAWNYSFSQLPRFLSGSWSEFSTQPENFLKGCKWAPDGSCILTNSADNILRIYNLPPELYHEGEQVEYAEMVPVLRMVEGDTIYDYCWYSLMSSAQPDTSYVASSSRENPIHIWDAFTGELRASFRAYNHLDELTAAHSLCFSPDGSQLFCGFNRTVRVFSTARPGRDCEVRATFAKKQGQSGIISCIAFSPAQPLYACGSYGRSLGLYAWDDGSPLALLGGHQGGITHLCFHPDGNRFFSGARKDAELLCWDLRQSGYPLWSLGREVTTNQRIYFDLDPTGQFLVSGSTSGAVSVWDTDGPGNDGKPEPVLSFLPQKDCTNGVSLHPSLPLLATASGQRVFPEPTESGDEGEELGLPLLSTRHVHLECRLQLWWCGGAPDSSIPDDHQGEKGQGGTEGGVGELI
UniProt Q86VN1: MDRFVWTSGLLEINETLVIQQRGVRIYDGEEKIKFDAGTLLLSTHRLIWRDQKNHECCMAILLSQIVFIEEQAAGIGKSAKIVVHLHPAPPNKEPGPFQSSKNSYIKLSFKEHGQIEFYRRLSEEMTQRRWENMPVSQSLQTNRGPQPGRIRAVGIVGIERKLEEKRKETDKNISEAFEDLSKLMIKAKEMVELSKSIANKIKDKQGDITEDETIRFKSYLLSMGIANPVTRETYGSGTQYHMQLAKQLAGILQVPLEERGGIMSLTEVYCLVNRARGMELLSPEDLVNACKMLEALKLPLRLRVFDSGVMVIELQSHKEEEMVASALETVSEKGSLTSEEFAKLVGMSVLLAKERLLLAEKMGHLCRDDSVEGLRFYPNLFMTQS
UniProt Q86Y07: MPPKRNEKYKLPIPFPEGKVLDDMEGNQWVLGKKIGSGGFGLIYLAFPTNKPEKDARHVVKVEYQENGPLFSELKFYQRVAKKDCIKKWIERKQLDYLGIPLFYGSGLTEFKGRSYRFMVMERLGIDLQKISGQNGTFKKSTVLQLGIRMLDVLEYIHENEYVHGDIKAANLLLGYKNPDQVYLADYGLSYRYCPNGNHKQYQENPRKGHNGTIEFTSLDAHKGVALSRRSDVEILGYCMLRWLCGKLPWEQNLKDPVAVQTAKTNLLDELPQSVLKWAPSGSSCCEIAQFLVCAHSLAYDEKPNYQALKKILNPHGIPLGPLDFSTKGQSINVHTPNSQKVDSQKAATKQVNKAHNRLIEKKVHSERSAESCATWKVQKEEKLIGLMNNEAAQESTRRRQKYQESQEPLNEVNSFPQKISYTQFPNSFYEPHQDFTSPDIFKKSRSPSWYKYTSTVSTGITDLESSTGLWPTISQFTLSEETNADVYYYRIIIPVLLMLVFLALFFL
UniProt Q9Y3C0: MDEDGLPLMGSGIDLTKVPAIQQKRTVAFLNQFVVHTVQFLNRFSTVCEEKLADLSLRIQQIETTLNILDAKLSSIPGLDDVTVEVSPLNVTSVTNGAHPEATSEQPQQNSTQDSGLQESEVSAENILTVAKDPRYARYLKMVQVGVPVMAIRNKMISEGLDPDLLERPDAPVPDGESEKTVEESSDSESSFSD
UniProt Q8TBZ3: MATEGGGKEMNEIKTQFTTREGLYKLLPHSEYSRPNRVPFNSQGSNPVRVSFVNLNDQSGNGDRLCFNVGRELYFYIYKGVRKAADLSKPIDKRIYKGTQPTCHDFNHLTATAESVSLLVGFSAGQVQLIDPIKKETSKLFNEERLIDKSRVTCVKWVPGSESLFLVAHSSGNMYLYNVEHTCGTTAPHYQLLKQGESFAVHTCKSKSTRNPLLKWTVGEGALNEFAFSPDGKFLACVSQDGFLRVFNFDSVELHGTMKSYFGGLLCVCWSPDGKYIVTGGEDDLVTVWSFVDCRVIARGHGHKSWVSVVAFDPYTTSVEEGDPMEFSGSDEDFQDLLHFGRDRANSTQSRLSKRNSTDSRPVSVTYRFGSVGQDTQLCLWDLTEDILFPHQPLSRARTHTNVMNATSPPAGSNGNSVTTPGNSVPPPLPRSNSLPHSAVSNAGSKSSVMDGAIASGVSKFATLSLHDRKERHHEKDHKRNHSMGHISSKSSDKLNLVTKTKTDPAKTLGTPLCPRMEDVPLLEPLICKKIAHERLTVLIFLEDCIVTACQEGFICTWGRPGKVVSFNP
UniProt O75717: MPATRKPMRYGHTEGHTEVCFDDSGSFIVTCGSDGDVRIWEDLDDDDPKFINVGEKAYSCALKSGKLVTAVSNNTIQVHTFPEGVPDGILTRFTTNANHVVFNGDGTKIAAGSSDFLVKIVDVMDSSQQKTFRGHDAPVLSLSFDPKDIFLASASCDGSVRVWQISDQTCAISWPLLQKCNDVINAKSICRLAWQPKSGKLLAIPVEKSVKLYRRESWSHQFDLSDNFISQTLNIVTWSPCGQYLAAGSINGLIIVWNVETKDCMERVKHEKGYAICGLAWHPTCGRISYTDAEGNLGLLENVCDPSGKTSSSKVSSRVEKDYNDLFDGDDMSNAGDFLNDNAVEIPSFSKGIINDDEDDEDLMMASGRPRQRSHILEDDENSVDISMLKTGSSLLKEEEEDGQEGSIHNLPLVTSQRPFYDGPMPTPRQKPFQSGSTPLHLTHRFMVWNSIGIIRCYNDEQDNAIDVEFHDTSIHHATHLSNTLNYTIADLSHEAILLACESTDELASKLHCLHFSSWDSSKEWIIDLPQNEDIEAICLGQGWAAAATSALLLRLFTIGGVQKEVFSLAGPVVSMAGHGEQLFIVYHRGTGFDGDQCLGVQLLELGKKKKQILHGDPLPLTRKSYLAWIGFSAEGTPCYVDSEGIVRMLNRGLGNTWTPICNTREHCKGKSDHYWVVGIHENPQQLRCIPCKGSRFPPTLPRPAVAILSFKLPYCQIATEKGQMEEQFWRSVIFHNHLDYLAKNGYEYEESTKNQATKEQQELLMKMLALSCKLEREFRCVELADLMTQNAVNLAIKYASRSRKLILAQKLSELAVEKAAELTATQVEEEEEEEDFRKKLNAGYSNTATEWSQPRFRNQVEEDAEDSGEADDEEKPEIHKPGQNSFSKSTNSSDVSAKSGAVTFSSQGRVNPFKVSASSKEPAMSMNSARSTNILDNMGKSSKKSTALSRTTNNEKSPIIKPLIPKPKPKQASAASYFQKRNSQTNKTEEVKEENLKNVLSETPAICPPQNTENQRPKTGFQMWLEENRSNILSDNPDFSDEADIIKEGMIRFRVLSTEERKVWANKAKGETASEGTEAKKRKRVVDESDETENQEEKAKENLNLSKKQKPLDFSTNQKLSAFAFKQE

Key:
Assay in all cases: log2 fold change, soluble protein after heating vs DMSO (PISA); higher = thermal stabilisation; K562 lysate, 10 uM; active = over 0.2 and 3.5 SD of the protein, either way, in both replicates (recomputed)
[1] = compound: C1=CC=C(C=C1)[C@H](COC2=CC3=C(C=C2)NC(=O)N3)NC(=O)C4=CC=CN(C4=O)CC5=CC(=C(C=C5)F)F
Outline: (§1)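 Log-two fold change in thermal stability relative to solvent controls is reported from duplicates. For each sample, crude K562 extract from dounce-homogenised pellets in PBS pH 7.4 with 1 mM MgCl2, at 1 mg/mL protein, was treated with 10 μM compound for 30 min. Aliquots heated for 3 min across 48°C-58°C were pooled, brought to 0.5% NP-40 at 4°C and cleared at 21,000xg for 90 min. The supernatant was quantified by TMTpro 16plex LC-MS/MS with channel sums equalised.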

[2] = compound: CC1=C(SC2=C1C(=N[C@H](C3=NN=C(N32)C)CC(=O)N)C4=CC=C(C=C4)Cl)C
Outline: as §1

[3] = compound: CC1=C2C(=CC=C1)N=C(N(C2=O)C3=CC=CC=C3C)CN4C=NC5=C(N=CN=C54)N
Outline: as §1

[4] = compound: Cc1sc2c(c1C)C(c1ccc(Cl)cc1)=N[C@@H](CC(=O)OC(C)(C)C)c1nnc(C)n1-2
Outline: as §1

[5] = compound: c1ccc([C@@H]2C[C@H]2NC2CCNCC2)cc1
Outline: as §1

| Target | log2 fold change [1] | log2 fold change [2] | log2 fold change [3] | log2 fold change [4] | log2 fold change [5] |
| --- | --- | --- | --- | --- | --- |
| VSIR (UniProt Q9H7M9) | inactive: 0.003 | inactive: -0.001 | inactive: 0.03 | inactive: -0.067 | inactive: -0.018 |
| WDR44 (UniProt Q5JSH3) | inactive: 0.007 | inactive: 0.011 | inactive: -0.004 | inactive: -0.019 | inactive: -0.025 |
| WASHC2A (UniProt Q641Q2) | inactive: 0.014 | inactive: -0.008 | inactive: -0.004 | inactive: -0.03 | inactive: -0.037 |
| WASHC2C (UniProt Q9Y4E1) | inactive: 0.052 | inactive: -0.018 | inactive: -0.041 | inactive: -0.095 | inactive: -0.087 |
| WDR61 (UniProt Q9GZS3) | inactive: 0.025 | inactive: -0.043 | inactive: 0.022 | inactive: -0.035 | inactive: -0.001 |
| VPS13B (UniProt Q7Z7G8) | inactive: 0.093 | inactive: -0.057 | inactive: 0.104 | inactive: -0.005 | inactive: -0.091 |
| WDR1 (UniProt O75083) | inactive: -0.011 | inactive: 0.015 | inactive: -0.011 | inactive: 0.046 | inactive: 0.073 |
| VTI1A (UniProt Q96AJ9) | inactive: -0.001 | inactive: -0.04 | inactive: 0.186 | inactive: 0.032 | inactive: 0.023 |
| VMP1 (UniProt Q96GC9) | inactive: 0.084 | inactive: -0.062 | inactive: 0.025 | inactive: -0.076 | inactive: -0.108 |
| WBP11 (UniProt Q9Y2W2) | inactive: 0.043 | inactive: 0.024 | inactive: 0.013 | inactive: 0.005 | inactive: -0.041 |
| VPS26B (UniProt Q4G0F5) | inactive: 0.034 | inactive: -0.004 | inactive: 0.001 | inactive: -0.03 | inactive: -0.064 |
| VPS29 isoform 2 (UniProt Q9UBQ0) | inactive: 0.009 | inactive: -0.097 | inactive: -0.019 | inactive: -0.005 | inactive: -0.051 |
| VPS50 (UniProt Q96JG6) | inactive: -0.04 | inactive: 0.028 | inactive: 0.018 | inactive: 0.001 | inactive: 0.05 |
| VTA1 (UniProt Q9NP79) | inactive: -0.036 | inactive: 0.02 | inactive: 0.002 | inactive: 0.081 | inactive: 0.04 |
| WRAP53 (UniProt Q9BUR4) | inactive: 0.063 | inactive: 0.046 | inactive: -0.009 | inactive: -0.092 | inactive: -0.038 |
| VPS36 (UniProt Q86VN1) | inactive: 0.018 | inactive: 0.024 | inactive: 0.003 | inactive: -0.012 | inactive: -0.006 |
| WDR24 (UniProt Q96S15) | inactive: -0.066 | active: -0.475 | inactive: -0.093 | inactive: 0.002 | inactive: -0.024 |
| VRK2 (UniProt Q86Y07) | inactive: 0.004 | inactive: 0 | inactive: -0.242 | inactive: -0.023 | inactive: -0.018 |
| WDR5 (UniProt P61964) | inactive: 0.031 | inactive: 0.01 | inactive: -0.024 | inactive: 0.07 | inactive: -0.215 |
| WASHC3 (UniProt Q9Y3C0) | inactive: 0.05 | inactive: 0.089 | inactive: 0.048 | inactive: -0.018 | inactive: -0.052 |
| VPS52 (UniProt Q8N1B4) | inactive: -0.011 | inactive: -0.003 | inactive: 0.051 | inactive: -0.005 | inactive: 0.01 |
| WDR20 isoform 7 (UniProt Q8TBZ3) | inactive: -0.037 | inactive: -0.002 | inactive: 0.035 | inactive: -0.176 | inactive: -0.124 |
| WDHD1 (UniProt O75717) | inactive: 0.018 | inactive: -0.011 | inactive: -0.017 | inactive: 0.011 | inactive: 0.067 |
| WDTC1 (UniProt Q8N5D0) | inactive: -0.004 | inactive: 0.022 | inactive: -0.015 | inactive: -0.017 | inactive: 0.069 |

Whole records from above. Values in the order: log2 fold change [1] | log2 fold change [2] | log2 fold change [3] | log2 fold change [4] | log2 fold change [5]
VPS29 isoform 2 (UniProt Q9UBQ0) reads inactive: 0.009 | inactive: -0.097 | inactive: -0.019 | inactive: -0.005 | inactive: -0.051
VPS13B (UniProt Q7Z7G8) reads inactive: 0.093 | inactive: -0.057 | inactive: 0.104 | inactive: -0.005 | inactive: -0.091
